Measurements: patent US20170107569, “METHOD FOR ATTACHING ONE OR MORE POLYNUCLEOTIDE BINDING PROTEINS TO A TARGET POLYNUCLEOTIDE” (Oxford Nanopore Technologies Ltd., published 2017)

Tests used:
[1] = target: T1, T4 Dda-E94C/C109A/C136A/A360C helicase (UniProt P32270); test: activity assay; conditions: 5' phosphate on SEQ 36; 4 iSp18 between SEQ 36 and SEQ 37; iBNA-meC, two iBNA-A, two iBNA-meC and iSp18 spacers between SEQ 34 and SEQ 35; pre-loaded as Example 2; helicase-controlled DNA movement through MspA nanopore, ATP and Mg2+; purified recombinant protein; protein details: closed with TMAD
T1 sequence: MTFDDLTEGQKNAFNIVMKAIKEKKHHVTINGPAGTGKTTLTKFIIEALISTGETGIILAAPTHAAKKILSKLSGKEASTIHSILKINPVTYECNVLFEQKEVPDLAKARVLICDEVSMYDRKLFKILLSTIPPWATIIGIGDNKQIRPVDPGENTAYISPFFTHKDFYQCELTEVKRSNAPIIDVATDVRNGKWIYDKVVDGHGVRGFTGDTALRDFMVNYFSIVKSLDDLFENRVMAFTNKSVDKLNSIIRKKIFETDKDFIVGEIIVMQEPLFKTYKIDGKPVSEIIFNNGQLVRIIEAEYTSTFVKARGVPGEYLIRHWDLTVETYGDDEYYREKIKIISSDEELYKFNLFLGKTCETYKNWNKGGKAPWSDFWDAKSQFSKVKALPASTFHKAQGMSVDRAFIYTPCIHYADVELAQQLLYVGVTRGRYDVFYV

[2] = target: T2, T4 Dda-(H82R/E94C/A360C) helicase (UniProt P32270); test: activity assay; conditions: 39 SpC3 at 5' end of SEQ 32; 4 iSp18 between SEQ 32 and SEQ 33; iBNA-meC, two iBNA-A, two iBNA-meC and iSp18 spacers between SEQ 34 and SEQ 35; pre-loaded as Example 2; helicase-controlled DNA movement through MspA nanopore, ATP and Mg2+; purified recombinant protein
T2 sequence: T1 sequence with H82R, A109C, A136C

Sequence | activity on this sequence [1] | activity on this sequence [2]
TGAGTGACCAATCAGCTACGTTTTTTTTTTTTGGTTGTTTCTGTTGGTGCTGATATTGCT / GCAATATCAGCACCAACAGAAAGAGGCGAGCGGTCAA / CGTAGCTGATTGGTCACTCAGT [END-piece (Example 6)] | active | –
TTTTTTTTTTGGTTGTTTCTGTTGGTGCTGATATTGCAC / GCAATATCAGCACCAACAGAAAGAGGCGAGCGGTCAA [A-piece (Example 6)] | – | active

Where a chain is given by its changes, count along the chain named. The exact form of at least one protein or probe is not confirmed. Protein sequences can lack the tags named with them.
